“And” between values parts separate entries of the source, which are not always exact repeats. Equal values may be shown once. Some of the results follow. For some assays here: Construct or isoform of the protein are uncertain.
Legend:
Assay in all cases: protein microarray (ProtoArray v5.0), streptavidin-Alexa Fluor 647
Settings in all cases: 3'-biotin; 20 mM Tris (pH 7.5), 5 mM MgCl2, 100 mM KCl, 0.1% Tween-20, A/T-rich and random oligonucleotide blockers; temperature not stated; high values mean tight binding
ARL5A (human) = system: ARL5A (human)
ARL6 (human) = system: ARL6 (human)
ARL8B (human) = system: ARL8B (human)
ARL9 (human) = system: ARL9 (human)
ARPC5 = ARPC5 (UniProt O15511)
ASB11 (human) = system: ASB11 (human)
ASB6 (human) = system: ASB6 (human)
ASMTL (human) = system: ASMTL (human)
ASNS = target: T1, ASNS (UniProt P08243)
T1 sequence: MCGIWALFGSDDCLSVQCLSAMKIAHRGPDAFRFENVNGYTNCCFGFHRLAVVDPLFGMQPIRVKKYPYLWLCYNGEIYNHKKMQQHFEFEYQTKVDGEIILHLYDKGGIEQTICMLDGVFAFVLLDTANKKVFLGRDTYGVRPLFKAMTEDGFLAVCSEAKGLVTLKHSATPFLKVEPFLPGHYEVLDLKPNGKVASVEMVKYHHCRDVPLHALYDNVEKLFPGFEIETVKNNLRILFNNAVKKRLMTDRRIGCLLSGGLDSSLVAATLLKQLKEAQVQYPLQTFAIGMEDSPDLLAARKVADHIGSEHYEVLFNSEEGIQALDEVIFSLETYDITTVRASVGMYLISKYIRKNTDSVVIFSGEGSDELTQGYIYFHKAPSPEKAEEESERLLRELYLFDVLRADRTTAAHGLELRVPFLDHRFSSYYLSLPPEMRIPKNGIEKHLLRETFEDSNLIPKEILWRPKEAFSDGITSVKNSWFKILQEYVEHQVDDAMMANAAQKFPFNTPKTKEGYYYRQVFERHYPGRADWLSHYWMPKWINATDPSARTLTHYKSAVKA

ASXL1 = ASXL1 (UniProt Q8IXJ9)
ATF3 (human) = system: ATF3 (human)
ATG10 (human) = system: ATG10 (human)
ATG4A (human) = system: ATG4A (human)
[1] = system: ATP-dependent RNA helicase DHX8 (human)
ATP5H (human) = system: ATP5H (human)
ATP5O = target: T2, ATP5O (UniProt P48047)
T2 sequence: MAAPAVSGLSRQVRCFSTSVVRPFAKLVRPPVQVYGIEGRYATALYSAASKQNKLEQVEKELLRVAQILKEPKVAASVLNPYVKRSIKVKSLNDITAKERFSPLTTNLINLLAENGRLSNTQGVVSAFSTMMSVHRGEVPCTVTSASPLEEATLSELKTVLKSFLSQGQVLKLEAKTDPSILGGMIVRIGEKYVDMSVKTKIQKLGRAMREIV

ATPBD4 (human) = system: ATPBD4 (human)
ATXN3 (human) = system: ATXN3 (human)
AXL = AXL (UniProt P30530)
[2] = system: Acyl carrier protein, mitochondrial (human)

“GGTGACAGGGGTATGGGGAGGGG [G4-2 biotinylated (Ct1)]” gave a binding signal (ARL5A (human)) of -0.386 z-score, a binding signal (ARL6 (human)) of -0.376 z-score and a binding signal (ARL8B (human)) of -0.377 z-score. The binding signal (ARL9 (human)) was -0.371 z-score, the binding signal (ARPC5) was -0.36 z-score and the binding signal (ASB11 (human)) was -0.371 z-score. For the same sequence, the binding signal (ASB6 (human)) was -0.375 z-score, the binding signal (ASMTL (human)) was -0.386 z-score and -0.391 z-score and the binding signal (ASNS) was -0.397 z-score. The binding signal (ASXL1) was 6.79 z-score, the binding signal (ATF3 (human)) was -0.36 z-score and the binding signal (ATG10 (human)) was -0.388 z-score. The binding signal (ATG4A (human)) was -0.404 z-score, the binding signal [1] was 3.49 z-score and the binding signal (ATP5H (human)) was -0.361 z-score. The binding signal (ATP5O) was 3.52 z-score, the binding signal (ATPBD4 (human)) was -0.372 z-score and the binding signal (ATXN3 (human)) was -0.39 z-score. For the same sequence, the binding signal (AXL) was -0.39 z-score and the binding signal [2] was -0.387 z-score.

Reference: paper PMC5996148
